Experimental data: PubChem BioAssay AID1053208 (Peter MacCallum Cancer Centre, 2014)
Purpose: 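Genes whose silencing cuts survival of bone tumour cells only with doxorubicin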 (primary screen). Cells: mouse osteosarcoma cells, early-passage culture from an engineered mouse model of fibroblastic bone tumour. Knock-down reagent: siRNA pool against mouse genes, 40 nM. Duration: about 120 h (48 h before drug, then 72 h with drug). Challenge: doxorubicin 100 nM for 72 h, roughly 30-40% inhibitory dose. Measurement: 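Viability read as ATP luminescence after 72 h of 100 nM doxorubicin or none, duplicate wells averaged, scaled to non-targeting siRNA, then expressed as robust z-scores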. Scale: viability z-score with doxorubicin and doxorubicin viability vs non-targeting: higher = more viable cells under doxorubicin; viability z-score without drug: higher = more viable cells with knock-down alone; z-score of drug to no-drug ratio: higher = less drug sensitisation by knock-down. Hit rule: 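a pool counts as active when its viability z-score with doxorubicin is -2 or below and its z-score without drug lies between -2 and 2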.
The deposit covers about 17,000 reagents; this is a random part of them. 788 of them (4.7%) were called active. 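Calls rest on z-score classes alone; an extra cut-off of viability at most 70% of control was not applied to them.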 Some reagents were tested in more than one well and are listed for each. Reagent sequences are not shown.

| Target gene | combined z-score class | viability z-score with doxorubicin | viability z-score without drug | z-score of drug to no-drug ratio | doxorubicin viability vs non-targeting | call |
| --- | --- | --- | --- | --- | --- | --- |
| Lynx1 (Ly6/neurotoxin 1) | no change with or without drug | -0.11 | 0 | 0 | 0.93 | inactive |
| Mapk1ip1 (mitogen-activated protein kinase 1 interacting protein 1) | low cell count with and without drug | -3.15 | -4.89 | 0.22 | 0.66 | inactive |
| Gad1 (glutamate decarboxylase 1) | no change with or without drug | -0.67 | 0.34 | -0.79 | 0.88 | inactive |
| Ppm1a (protein phosphatase 1A, magnesium dependent, alpha isoform) | no change with or without drug | 1.12 | -0.34 | 1.57 | 1.04 | inactive |
| Moap1 (modulator of apoptosis 1) | no change with or without drug | 1.91 | 0.17 | 2.02 | 1.11 | inactive |
| Prdx3 (peroxiredoxin 3) | no change with or without drug | 1.46 | 1.69 | 0.45 | 1.07 | inactive |
| Kcnma1 | no change with or without drug | -0.45 | -0.17 | -0.22 | 0.9 | inactive |
| 1600012H06Rik (RIKEN cDNA 1600012H06 gene) | no change with or without drug | -0.22 | 1.85 | -1.24 | 0.92 | inactive |
| Acsl4 (acyl-CoA synthetase long-chain family member 4) | no change with or without drug | -0.9 | 0.34 | -1.01 | 0.86 | inactive |
| Hmgb4 (high-mobility group box 4) | low cell count with doxorubicin only | -2.25 | 0 | -2.25 | 0.74 | active |
| Dsg4 (desmoglein 4) | no change with or without drug | 0.67 | 0.17 | 0.67 | 1 | inactive |
| Ptgir (prostaglandin I receptor (IP)) | no change with or without drug | -0.67 | -1.85 | 0.79 | 0.88 | inactive |
| Atp8b2 (ATPase, class I, type 8B, member 2) | no change with or without drug | -0.79 | 1.35 | -1.57 | 0.87 | inactive |
| Gng12 (guanine nucleotide binding protein (G protein), gamma 12) | no change with or without drug | 1.46 | 1.85 | 0.34 | 1.07 | inactive |
| Imp3 (IMP3, U3 small nucleolar ribonucleoprotein) | no change with or without drug | 1.8 | 1.52 | 0.9 | 1.1 | inactive |
| Cdt1 (chromatin licensing and DNA replication factor 1) | no change with or without drug | 1.57 | -0.84 | 2.47 | 1.08 | inactive |
| Ift172 (intraflagellar transport 172) | no change with or without drug | -0.11 | 0.84 | -0.56 | 0.93 | inactive |
| Akt1 (Akt serine/threonine kinase 1) | no change with or without drug | -0.34 | -0.51 | 0.11 | 0.91 | inactive |
| Akt1 (Akt serine/threonine kinase 1) | no change with or without drug | -1.12 | -1.18 | -0.34 | 0.84 | inactive |
| Sec61a1 (SEC61 translocon subunit alpha 1) | no change with or without drug | -0.9 | -0.84 | -0.22 | 0.86 | inactive |
| Zfp445 (zinc finger protein 445) | no change with or without drug | 0.9 | 0.34 | 0.79 | 1.02 | inactive |
| Retnlb (resistin like beta) | no change with or without drug | -0.34 | -0.51 | 0.11 | 0.91 | inactive |
| Prkar2b (protein kinase, cAMP dependent regulatory, type II beta) | high cell count without drug only | 1.8 | 2.19 | 0.45 | 1.1 | inactive |
| Grik4 (glutamate receptor, ionotropic, kainate 4) | no change with or without drug | 1.46 | -0.17 | 1.8 | 1.07 | inactive |
| Top3b (topoisomerase (DNA) III beta) | no change with or without drug | 0.45 | 0.34 | 0.34 | 0.98 | inactive |

Continued; the last 7 above are carried over.
| Target gene | combined z-score class | viability z-score with doxorubicin | viability z-score without drug | z-score of drug to no-drug ratio | doxorubicin viability vs non-targeting | call |
| --- | --- | --- | --- | --- | --- | --- |
| Akt1 (Akt serine/threonine kinase 1) | no change with or without drug | -1.12 | -1.18 | -0.34 | 0.84 | inactive |
| Sec61a1 (SEC61 translocon subunit alpha 1) | no change with or without drug | -0.9 | -0.84 | -0.22 | 0.86 | inactive |
| Zfp445 (zinc finger protein 445) | no change with or without drug | 0.9 | 0.34 | 0.79 | 1.02 | inactive |
| Retnlb (resistin like beta) | no change with or without drug | -0.34 | -0.51 | 0.11 | 0.91 | inactive |
| Prkar2b (protein kinase, cAMP dependent regulatory, type II beta) | high cell count without drug only | 1.8 | 2.19 | 0.45 | 1.1 | inactive |
| Grik4 (glutamate receptor, ionotropic, kainate 4) | no change with or without drug | 1.46 | -0.17 | 1.8 | 1.07 | inactive |
| Top3b (topoisomerase (DNA) III beta) | no change with or without drug | 0.45 | 0.34 | 0.34 | 0.98 | inactive |
| Stk10 (serine/threonine kinase 10) | no change with or without drug | 0.9 | -1.35 | 2.14 | 1.02 | inactive |
| Erbb2 (erb-b2 receptor tyrosine kinase 2) | no change with or without drug | -1.01 | -0.84 | -0.45 | 0.85 | inactive |
| Tonsl (tonsoku-like, DNA repair protein) | no change with or without drug | -1.12 | -1.52 | 0 | 0.84 | inactive |
| Rsrc1 (arginine/serine-rich coiled-coil 1) | no change with or without drug | 0.56 | 1.35 | -0.22 | 0.99 | inactive |
| Unc45a (unc-45 myosin chaperone A) | no change with or without drug | -0.22 | -0.67 | 0.34 | 0.92 | inactive |
| 9530080O11Rik (RIKEN cDNA 9530080O11 gene) | no change with or without drug | -0.22 | -0.51 | 0.22 | 0.92 | inactive |
| C6 (complement component 6) | no change with or without drug | 1.57 | -0.84 | 2.47 | 1.08 | inactive |
| Ptpn5 (protein tyrosine phosphatase, non-receptor type 5) | no change with or without drug | -0.22 | -1.18 | 0.79 | 0.92 | inactive |
| Slc25a27 | no change with or without drug | 0.22 | -0.51 | 0.67 | 0.96 | inactive |
| Tapt1 (transmembrane anterior posterior transformation 1) | high cell count without drug only | 0.56 | 2.02 | -0.56 | 0.99 | inactive |
| Pdzk1 (PDZ domain containing 1) | no change with or without drug | -0.34 | 0.17 | -0.34 | 0.91 | inactive |
| Rai2 (retinoic acid induced 2) | no change with or without drug | 1.35 | -0.17 | 1.69 | 1.06 | inactive |
| Tmem145 (transmembrane protein 145) | no change with or without drug | 0 | 0 | 0.11 | 0.94 | inactive |
| Plbd1 (phospholipase B domain containing 1) | no change with or without drug | -0.22 | -0.84 | 0.45 | 0.92 | inactive |
| Lat2 (linker for activation of T cells family, member 2) | no change with or without drug | 1.24 | 1.18 | 0.56 | 1.05 | inactive |
| Semp2l2a (SUMO/sentrin specific peptidase 2-like 2A) | no change with or without drug | -0.11 | -0.51 | 0.34 | 0.93 | inactive |
| Tmem230 (transmembrane protein 230) | no change with or without drug | -0.67 | 0.51 | -0.9 | 0.88 | inactive |
| E130113K22RIK | no change with or without drug | -1.35 | 0.84 | -1.8 | 0.82 | inactive |
| Phxr1 (per-hexamer repeat gene 1) | no change with or without drug | -0.56 | 0.51 | -0.79 | 0.89 | inactive |
| Fkbpl (FK506 binding protein-like) | no change with or without drug | -0.22 | 1.85 | -1.24 | 0.92 | inactive |
| Lrwd1 (leucine-rich repeats and WD repeat domain containing 1) | no change with or without drug | 1.12 | 1.85 | 0 | 1.04 | inactive |
| Adh5 (alcohol dehydrogenase 5 (class III), chi polypeptide) | no change with or without drug | 0.45 | 1.52 | -0.45 | 0.98 | inactive |
| Ccnj (cyclin J) | no change with or without drug | 0.22 | 1.01 | -0.34 | 0.96 | inactive |
| Pde8b (phosphodiesterase 8B) | no change with or without drug | 0 | 0 | 0.11 | 0.94 | inactive |
| Ntsr2 (neurotensin receptor 2) | no change with or without drug | 0.67 | -1.85 | 2.36 | 1 | inactive |
| Pip5k1b (phosphatidylinositol-4-phosphate 5-kinase, type 1 beta) | no change with or without drug | 0.9 | -0.34 | 1.35 | 1.02 | inactive |
| Cabp4 (calcium binding protein 4) | no change with or without drug | -0.56 | -0.51 | -0.11 | 0.89 | inactive |
| Or4c103 (olfactory receptor family 4 subfamily C member 103) | no change with or without drug | -1.8 | -0.51 | -1.46 | 0.78 | inactive |
| Lefty2 (left-right determination factor 2) | no change with or without drug | 0.45 | -0.34 | 0.79 | 0.98 | inactive |
| Cd164 (CD164 antigen) | no change with or without drug | -1.12 | -0.17 | -1.01 | 0.84 | inactive |
| Zscan5b (zinc finger and SCAN domain containing 5B) | no change with or without drug | -1.12 | -0.17 | -1.01 | 0.84 | inactive |
| Tafa1 (TAFA chemokine like family member 1) | high cell count without drug only | 1.35 | 2.19 | 0 | 1.06 | inactive |
| Hectd3 (HECT domain E3 ubiquitin protein ligase 3) | high cell count with doxorubicin only | 2.81 | 1.85 | 1.57 | 1.19 | inactive |
| Drc11l (dynein regulatory complex subunit 11 like) | no change with or without drug | -0.67 | 0.84 | -1.12 | 0.88 | inactive |
| Apbb1 (amyloid beta precursor protein binding family B member 1) | no change with or without drug | 0.45 | 0.17 | 0.45 | 0.98 | inactive |
| 4930486L24Rik (RIKEN cDNA 4930486L24 gene) | no change with or without drug | 0 | 0.84 | -0.45 | 0.94 | inactive |
| Sp140l2 (Sp140 nuclear body protein like 2) | no change with or without drug | 1.46 | 0.17 | 1.46 | 1.07 | inactive |
| Kcnj11 | no change with or without drug | -0.45 | 0.34 | -0.56 | 0.9 | inactive |
